According to PMC12089419:
No constants are given. Whether binding was seen depends on the method and setting. Binding seen in cells or lysates may run through a third protein. Here binding means that the protein was enriched with, or labelled near, the bait; the list need not be complete. Where a sequence is shown, tags or fusion partners need not be part of it.

Protein sequences, listed by entry. Tags and fused reporters are not part of them.
UniProt Q93009: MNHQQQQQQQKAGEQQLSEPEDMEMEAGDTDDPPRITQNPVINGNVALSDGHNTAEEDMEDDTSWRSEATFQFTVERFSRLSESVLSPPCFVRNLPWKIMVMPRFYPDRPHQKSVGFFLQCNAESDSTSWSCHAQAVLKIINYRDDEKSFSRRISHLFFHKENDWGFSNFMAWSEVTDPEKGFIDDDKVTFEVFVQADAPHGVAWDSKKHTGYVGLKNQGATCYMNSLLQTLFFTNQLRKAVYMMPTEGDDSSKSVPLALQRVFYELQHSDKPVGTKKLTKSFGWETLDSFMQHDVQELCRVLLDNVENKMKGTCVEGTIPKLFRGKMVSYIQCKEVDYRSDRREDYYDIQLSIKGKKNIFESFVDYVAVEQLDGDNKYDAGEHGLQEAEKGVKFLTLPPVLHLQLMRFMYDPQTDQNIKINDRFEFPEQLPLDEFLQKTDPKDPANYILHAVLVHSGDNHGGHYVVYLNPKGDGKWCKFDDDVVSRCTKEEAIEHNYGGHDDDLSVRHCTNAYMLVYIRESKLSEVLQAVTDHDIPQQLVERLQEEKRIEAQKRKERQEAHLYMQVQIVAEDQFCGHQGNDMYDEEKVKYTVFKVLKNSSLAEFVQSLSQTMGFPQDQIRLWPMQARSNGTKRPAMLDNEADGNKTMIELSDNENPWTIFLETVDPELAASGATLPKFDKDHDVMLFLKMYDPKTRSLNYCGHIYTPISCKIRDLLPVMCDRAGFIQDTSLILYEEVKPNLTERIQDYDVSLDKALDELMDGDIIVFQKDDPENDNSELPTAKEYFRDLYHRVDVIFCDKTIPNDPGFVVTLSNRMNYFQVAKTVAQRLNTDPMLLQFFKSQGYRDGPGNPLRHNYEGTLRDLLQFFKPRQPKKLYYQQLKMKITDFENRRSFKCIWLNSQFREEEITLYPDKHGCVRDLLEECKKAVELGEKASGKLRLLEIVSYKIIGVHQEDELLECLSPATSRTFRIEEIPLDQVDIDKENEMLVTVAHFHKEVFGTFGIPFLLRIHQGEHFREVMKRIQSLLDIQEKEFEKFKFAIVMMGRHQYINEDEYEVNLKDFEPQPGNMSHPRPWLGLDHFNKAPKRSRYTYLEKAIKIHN

Target: T1, Myc-DACH1-FL (human) (UniProt Q9UI36)
T1 sequence: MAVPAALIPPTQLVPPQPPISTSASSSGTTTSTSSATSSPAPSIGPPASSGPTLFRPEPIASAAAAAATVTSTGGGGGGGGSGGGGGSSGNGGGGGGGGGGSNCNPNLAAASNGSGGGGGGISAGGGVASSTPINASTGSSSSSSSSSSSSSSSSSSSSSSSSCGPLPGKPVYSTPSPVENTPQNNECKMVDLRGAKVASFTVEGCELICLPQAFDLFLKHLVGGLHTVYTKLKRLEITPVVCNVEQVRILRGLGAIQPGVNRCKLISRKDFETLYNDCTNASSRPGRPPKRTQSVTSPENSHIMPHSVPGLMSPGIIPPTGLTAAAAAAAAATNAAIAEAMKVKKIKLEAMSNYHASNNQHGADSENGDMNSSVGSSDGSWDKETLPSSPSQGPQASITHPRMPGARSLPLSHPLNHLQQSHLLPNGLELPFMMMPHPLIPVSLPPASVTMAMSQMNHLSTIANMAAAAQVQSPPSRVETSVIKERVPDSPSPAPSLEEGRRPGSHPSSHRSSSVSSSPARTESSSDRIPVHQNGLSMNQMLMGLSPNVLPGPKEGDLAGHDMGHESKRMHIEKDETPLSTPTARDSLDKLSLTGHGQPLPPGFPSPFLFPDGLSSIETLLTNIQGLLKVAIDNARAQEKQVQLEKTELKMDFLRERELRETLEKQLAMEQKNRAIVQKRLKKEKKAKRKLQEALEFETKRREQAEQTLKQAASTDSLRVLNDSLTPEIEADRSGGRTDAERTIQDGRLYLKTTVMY
Test: affinity purification with mass spectrometry; Myc-DACH1 stably expressed in HCT8 cells; whole cell extracts purified with anti-Myc affinity beads, then mass spectrometry

binding: binds
Substance: endogenous USP7 (from UniProt Q93009 1-1102) (enzyme)
